Measured values published in PubChem BioAssay AID1671193 (National Center for Advancing Translational Sciences (NCATS), 2021).
Only a part is listed here, and it is no random draw. Inconclusive results are not listed. Activity calls are given as the source filed them. Calls follow the shape of the dose curve; as a rule, active = well fitted cell-killing curve with a large enough effect; inconclusive = small, poorly fitted or top-dose-only effect, or effect the other way; inactive = flat fitted curve, though single readings scatter.

assay: GF-AFC viability counterscreen for inhibitors of alpha-synuclein gene (SNCA) expression; conditions: HEK-293-SNCA-luc viability, GF-AFC fluorescence, 24 h; also: nearly all actives have a fitted effect of over 30% in size
Text: Assay Submitter (PI): Daniel R. Scoles Ph.D.
Department of Neurology, University of Utah, Salt Lake City, Utah
Accumulation of alpha-synuclein is a main underlying pathological feature of Parkinson's disease (PD) and alpha-synucleinopathies, for which lowering expression of the alpha-synuclein gene (SNCA) is a potential therapeutic avenue. Using a cell-based luciferase reporter of SNCA expression we performed a quantitative high throughput screen (qHTS) of 155,885 compounds in dose response. The screening assay was generated using genome editing to insert the luciferase gene downstream and in frame of the SNCA gene in HEK-293 cells (1). A viability counterscreen using GF-AFC was used to eliminate cytotoxic and false positive compounds. […]
Described herein are the results of the GF-AFC viability counterscreen for SNCA inhibitors; inactivity (no decrease in fluorescence signal, not cytotoxic) is the desired output for this assay. […]
7; Detector; Fluorescence; Measure fluorescence with ViewLux microplate reader (PerkinElmer) equipped with 405/10 excitation and 540/25 emission filters. […]
10; Detector; Luminescence; Measure luminescence with ViewLux microplate reader (PerkinElmer) equipped with clear filters. […]
10; Signals were analyzed, and dose-response curves were fit using the Hill equation. […]
Potency is read from the fitted curve at half-maximal effect.

SMILES | Potency
CN[C@@H]1C[C@H]2O[C@@](C)([C@@H]1OC)n1c3ccccc3c3c4c(c5c6ccccc6n2c5c31)C(=O)NC4 | active: 4.74 µM
